Assay [1] concerns the target T1, N-terminal FLAG-tagged human ROBO4 extracellular region/domain deletion variant hROBO4-46 (human) (UniProt Q8WZ75).
T1 sequence: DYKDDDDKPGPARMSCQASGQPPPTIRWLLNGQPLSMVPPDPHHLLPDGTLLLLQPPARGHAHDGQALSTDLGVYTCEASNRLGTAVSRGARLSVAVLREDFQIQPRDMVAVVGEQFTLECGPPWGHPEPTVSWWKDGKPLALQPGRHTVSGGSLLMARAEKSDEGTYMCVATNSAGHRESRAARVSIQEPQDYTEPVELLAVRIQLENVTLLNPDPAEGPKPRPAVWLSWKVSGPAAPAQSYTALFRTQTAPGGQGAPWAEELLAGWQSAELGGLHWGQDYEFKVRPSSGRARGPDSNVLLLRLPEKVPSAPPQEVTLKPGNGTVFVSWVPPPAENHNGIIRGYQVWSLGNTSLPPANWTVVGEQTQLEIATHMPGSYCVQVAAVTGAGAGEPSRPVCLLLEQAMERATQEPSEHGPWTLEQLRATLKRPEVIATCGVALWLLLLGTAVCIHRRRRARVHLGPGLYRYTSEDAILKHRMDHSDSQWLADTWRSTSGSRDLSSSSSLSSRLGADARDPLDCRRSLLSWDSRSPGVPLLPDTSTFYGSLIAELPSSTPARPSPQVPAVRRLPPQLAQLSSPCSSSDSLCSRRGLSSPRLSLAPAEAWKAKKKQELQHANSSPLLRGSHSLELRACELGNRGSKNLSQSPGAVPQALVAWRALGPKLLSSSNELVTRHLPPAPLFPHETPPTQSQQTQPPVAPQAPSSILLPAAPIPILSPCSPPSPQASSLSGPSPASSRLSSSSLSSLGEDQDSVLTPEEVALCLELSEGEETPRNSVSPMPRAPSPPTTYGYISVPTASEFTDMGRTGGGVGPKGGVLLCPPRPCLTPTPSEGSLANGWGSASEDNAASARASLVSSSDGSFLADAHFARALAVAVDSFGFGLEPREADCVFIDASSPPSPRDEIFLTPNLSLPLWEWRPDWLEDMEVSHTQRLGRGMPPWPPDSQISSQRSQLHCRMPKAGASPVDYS
The assay is described as follows: flow cytometry on transfected HEK293 cells, 10 µg/mL. In general terms: Flow cytometry measures light scatter and fluorescence of single cells or particles in a stream.

The chains behind the UniProt entries cited, without tags or fusion partners. Where a name states a change or a piece, a line headed by the entry shows the natural chain unless it says otherwise.
UniProt Q8WZ75: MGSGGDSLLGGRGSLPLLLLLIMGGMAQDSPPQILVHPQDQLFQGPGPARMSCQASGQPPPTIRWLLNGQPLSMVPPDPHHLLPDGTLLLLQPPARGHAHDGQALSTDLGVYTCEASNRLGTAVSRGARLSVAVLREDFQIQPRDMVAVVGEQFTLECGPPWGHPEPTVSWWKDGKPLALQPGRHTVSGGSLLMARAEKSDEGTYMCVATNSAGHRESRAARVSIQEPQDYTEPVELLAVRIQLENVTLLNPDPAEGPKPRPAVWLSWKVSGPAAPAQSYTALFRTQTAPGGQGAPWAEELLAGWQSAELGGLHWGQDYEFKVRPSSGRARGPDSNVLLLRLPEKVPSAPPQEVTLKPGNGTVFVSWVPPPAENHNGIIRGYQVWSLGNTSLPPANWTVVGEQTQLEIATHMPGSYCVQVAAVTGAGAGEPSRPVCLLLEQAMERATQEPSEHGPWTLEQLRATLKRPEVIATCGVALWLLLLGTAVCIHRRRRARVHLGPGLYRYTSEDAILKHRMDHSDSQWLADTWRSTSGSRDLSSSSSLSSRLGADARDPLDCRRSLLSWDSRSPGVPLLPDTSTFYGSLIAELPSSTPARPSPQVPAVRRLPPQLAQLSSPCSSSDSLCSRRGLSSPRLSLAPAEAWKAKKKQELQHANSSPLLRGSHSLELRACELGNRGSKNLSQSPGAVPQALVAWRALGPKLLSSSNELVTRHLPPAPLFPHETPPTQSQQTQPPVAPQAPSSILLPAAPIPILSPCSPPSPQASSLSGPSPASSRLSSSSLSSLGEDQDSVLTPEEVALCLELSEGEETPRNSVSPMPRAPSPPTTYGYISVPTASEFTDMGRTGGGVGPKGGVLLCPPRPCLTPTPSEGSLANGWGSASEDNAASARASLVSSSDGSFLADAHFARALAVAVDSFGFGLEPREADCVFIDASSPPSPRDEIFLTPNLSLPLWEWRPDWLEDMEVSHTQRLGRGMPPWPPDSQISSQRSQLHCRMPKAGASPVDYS

For assay [2], the target named is T1, N-terminal FLAG-tagged human ROBO4 extracellular region/domain deletion variant hROBO4-46 (human). Briefly: flow cytometry, HEK293 cells transfected with pCI-FLAG-hROBO4-46, antibody at 10 µg/mL, anti-mouse IgG FITC; control histogram IgG (Mouse IgG2a).

Results are given in words; binding and its absence hold for the method and conditions named. Some entries that bind do so weakly or less than the wild type. Where a sequence is shown, tags or fusion partners need not be part of it.

B1: anti-ROBO4 mouse monoclonal antibody MAb1 (antibody, mouse IgG1, V domains shown)
VH: EVQLVESGGGLVKPGGSLKLSCAASGFTFSTYAMSWVRQTPEKRLEWVATISNGGTYTYYPDSVKGRFTISRDNAENTLYLQMSSLRSEDTAMYFCARLIYYDYLDYWGHGTTLTVSS
VL: DAVMTQTPLSLPVSLGDQASISCRSSQSLENSNGNTYLNWYFQKPGQSPQLLIYRVSNRFSGVLDRFSGSGSGTDFTLKISRVEAEDFGVYFCLQVTHVPWTFGGGTKLEIKR
notes: Mouse IgG1 (gamma1), kappa light chain, purified from hybridoma supernatant; also called parent antibody MAb1
With B1, the binding entry in assay [1] and in assay [2] was “binds” in each case.

These data come from patent US20150098945A1 (Daiichi Sankyo, published 2015).
